Laboratory results reported in patent US20220112295A1 (Novo Nordisk, published 2022).
No constants are given. Whether binding was seen depends on the method and setting. Some binding calls cover weakened binding; strength is not graded here. For some of these results: Where a sequence is shown, tags or fusion partners need not be part of it.

Columns and labels:
[1] = target: T1, native human CD30L expressed on Ramos cells (human) (UniProt P32971); test: FACS Kd method on Ramos cells
T1 sequence: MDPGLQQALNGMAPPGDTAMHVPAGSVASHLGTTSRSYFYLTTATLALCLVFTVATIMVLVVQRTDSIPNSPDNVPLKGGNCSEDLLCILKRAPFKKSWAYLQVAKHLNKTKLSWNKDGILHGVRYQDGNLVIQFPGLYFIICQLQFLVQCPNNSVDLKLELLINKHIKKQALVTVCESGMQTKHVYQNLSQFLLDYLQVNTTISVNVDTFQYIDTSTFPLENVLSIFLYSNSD

rhCD30L (human) = target: T2, rhCD30L (human) (UniProt P32971); test: binding competition assay, labeled against unlabeled antibodies
T2 sequence: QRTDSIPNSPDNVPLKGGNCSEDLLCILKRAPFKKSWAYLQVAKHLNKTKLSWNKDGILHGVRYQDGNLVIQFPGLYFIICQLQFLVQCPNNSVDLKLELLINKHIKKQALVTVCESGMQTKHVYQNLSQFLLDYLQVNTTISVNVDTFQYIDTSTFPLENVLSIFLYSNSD

[2] = target: T1, native human CD30L expressed on Ramos cells (human); test: screening, FMAT and FACS
[3] = target: native cynomolgus monkey CD30L on activated T cells (cynomolgus monkey); test: screening
[4] = target: T3, His-hCD30L-EC treated with PNGaseF (human) (UniProt P32971); test: HX-MS, 6 uM hCD30L with 6.6 uM mAb
T3 sequence (chain, N-glycosylations remain at N153 and N201 after PNGaseF (Table 7)): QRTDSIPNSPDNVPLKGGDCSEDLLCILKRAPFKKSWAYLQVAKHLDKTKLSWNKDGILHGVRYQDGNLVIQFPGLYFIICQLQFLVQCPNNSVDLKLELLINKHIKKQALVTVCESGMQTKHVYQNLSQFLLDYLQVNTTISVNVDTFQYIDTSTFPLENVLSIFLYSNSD

[5] = target: T4, FLAG-hCD30L-EC (N153Q) treated with PNGaseF (human); test: HX-MS, 6 uM hCD30L with 6.6 uM mAb
T4 sequence: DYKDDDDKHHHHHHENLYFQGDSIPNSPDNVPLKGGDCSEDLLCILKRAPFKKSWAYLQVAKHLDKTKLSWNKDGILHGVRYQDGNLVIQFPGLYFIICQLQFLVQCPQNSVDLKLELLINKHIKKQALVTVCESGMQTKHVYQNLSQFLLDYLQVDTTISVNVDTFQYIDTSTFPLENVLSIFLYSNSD

[6] = target: T5, human CD30L-His10 trimer (R&D Systems 1028-CL) (human) (UniProt P32971); test: Biacore sandwich, hCD30L-His10 trimer captured on A1-FAB, antibody at 75 nM
T5 sequence: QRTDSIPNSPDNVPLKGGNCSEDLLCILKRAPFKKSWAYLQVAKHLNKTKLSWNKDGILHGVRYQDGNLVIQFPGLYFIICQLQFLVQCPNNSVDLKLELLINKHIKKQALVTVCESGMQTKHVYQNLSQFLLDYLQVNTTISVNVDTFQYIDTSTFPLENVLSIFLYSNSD

Measured: binding

B1: Antibody A (antibody, V domains shown)
VH: QVQLQESGPGLVKPSETLSLTCTVSGGSISSYIWSWIRQPAGKGLEWIGRIYASGNTNYNPSLKSRVTMSVDTSKNQFSLKLSSMTAADTAVYYCARDYRVAGTYYYYYGLDVWGQGTTVTVSS
VL: QSALTQPASVSGSPGQSITISCTGTSSDVGVYDYVSWYQQHPGKAPKLMIYEVSNRPSGVSNRFSGSKSGNTASLTISGLQTEDEADYYCSSYTSRSTWVFGGGTKLTVL
notes: Human antibody (XenoMouse); also called mAb A; anti-hCD30L A
binds: [1] | rhCD30L (human) | [2] | [3]

B2: Antibody A1 (antibody, V domains shown)
VH: QVQLQESGPGLVKPSETLSLTCTVSGGSISSYIWSWIRQPAGKGLEWIGRIYASGNTNYNPSLKSRVTISVDTSKNQFSLKLSSMTAADTAVYYCARDYRVAGTYYYYYGLDVWGQGTTVTVSS
VL: QSALTQPASVSGSPGQSITISCTGTSSDVGVYDYVSWYQQHPGKAPKLMIYEVSNRPSGVSNRFSGSKSGNTASLTISGLQTEDEADYYCSSYTSRSTWVFGGGTKLTVL
notes: also called mAb A1; Antibody A1 IgG2
binds: [4]

B3: Antibody D (antibody, V domains shown)
VH: QVQLQESGPGLVKPSETLSLTCTVSGGSISSYSWSWIRQPAGKGLEWIGRTSTSGRNNYNPSLKSRVTMSVDTSKNQFSLKLNSVTAADTAVYYCARDFTIAARRYYYYGMDVWGQGTTVTVSS
VL: QSALTQPASVSGSPGQSITISCTGTSSDIGLYNYVSWYQQHPGKAPKLIIYEVINRPSGVSNRFSGSESGNTASLTISGLQAEDEANYYCSSYTSSSTWVFGGGTKLTVL
notes: also called mAb D
binds: rhCD30L (human) | [3]

B4: Antibody E (antibody, V domains shown)
VH: QVQLQESGPRLVKPSETLSLTCTVSGGSITNNYWSWIRQPAGKGLEWIGRVYSSGLTNYKPSLKSRVTMSVDTSKNQFSLRLNSVTAADTAVYYCARERATVTTRYHYDGMDVWGQGTSVTVSS
VL: QSALTQPASVSGSPGQSITISCTGSSSDIGTYNYVSWYQQYPGKAPELMIYEVNNRPSGVSDRFSGSTSGNTASLTISGLQANDEADYYCSSYSSSSTWVFGGGTKLTVL
notes: also called mAb E
binds: rhCD30L (human) | [3]

B5: Antibody F (antibody, V domains shown)
VH: QVQLQESGPGLVKPSETLSLTCTVSGGSISSYYWSWIRQPAGKGLEWIGRIFASGSTNYNPSLRSRVTMSRDTSKNQFSLKLSSVTAADTAVYYCAKERVGVQDYYHYSGMDVWGQGTTVTVSS
VL: QSALTQPASVSGSPGQSITISCTGTSSDVGLYNYVSWYQQQPGKAPKLMIYEVSKRPSGVSNRFSGSTSGNTASLTISGLQADDEADYSCSSYTSSSTWVFGGGTKLTVL
notes: also called mAb F
binds: rhCD30L (human) | [3]

B6: Antibody B (antibody, V domains shown)
VH: QVQLQESGPGLVKPSETLSLTCTVSGGSISSYYWTWIRQPAGKGLEWIGRIYTSGITNYNPSLKSRVTMSVDTSKNQFSLKLSSVTAADTAVYYCARERVVGASRYYYYGVDVWGQGTTVTVSS
VL: QSALTQPASVSGSPGQSITISCTGTSSDVGLYNYVSWYQQHPDKAPKLMIFEVNNRPSGVSNRFSGSNSGNTASLTISGLQAEDEADYYCSSYTSSSTWVFGGGTKLTVL
notes: also called mAb B
binds: [1] | [5] | rhCD30L (human) | [2] | [3]

B7: Antibody C (antibody, V domains shown)
VH: QVQLQESGPGLVKPSETLSLTCTVSGGSISSYYWTWIRQPAGKGLEWIGRIYTSGITNYNPSLKSRVTMSVDTSKNQFSLKLSSVTAADTAVYYCARERVVGASRYYYYGVDVWGQGTTVTVSS
VL: QSALTQPASVSGSPGQSITISCTGTSSDIGLYDYVSWYQQHPDRAPKLIIFEVNNRPSGVSYRFSGSNSGNTASLTISGLQAEDEADYYCSSYTSSSTWVFGGGTKLTVL
notes: also called mAb C
binds: [1] | [5] | [6] | rhCD30L (human) | [2] | [3]
